{
  "source": "paper PMC8208975",
  "about": "“Extracellular mRNA transported to the nucleus exerts translation-independent function”",
  "tested_on": "T1, ZC3H12D short isoform (hZC36) (Homo sapiens)",
  "T1 sequence (looked up, limits assumed)": "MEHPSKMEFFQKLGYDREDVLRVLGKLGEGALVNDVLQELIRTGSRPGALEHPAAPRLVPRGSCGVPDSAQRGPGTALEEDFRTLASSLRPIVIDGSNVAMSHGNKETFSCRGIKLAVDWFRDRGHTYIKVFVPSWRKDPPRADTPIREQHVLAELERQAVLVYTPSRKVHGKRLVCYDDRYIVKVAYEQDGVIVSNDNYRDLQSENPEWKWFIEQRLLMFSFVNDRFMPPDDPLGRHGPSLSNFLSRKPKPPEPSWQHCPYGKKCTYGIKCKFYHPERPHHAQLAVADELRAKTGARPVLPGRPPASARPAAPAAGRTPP",
  "test": "competition with a labelled probe",
  "conditions": "unlabeled 5 uM vs 50 nM biotin-probe 5; EMSA: 100 mM HEPES pH 7.3, 200 mM KCl, 10 mM MgCl2, 10 mM DTT, glycerol, tRNA; recombinant protein; protein details: C-terminal myc-FLAG (pCMV6-Entry); label: 3'-biotin (unlabeled as competitor)",
  "note": "For at least one entry, the source does not settle the construct or the ends of the probe. At least one verdict was read from the data and is not stated in words by the source. Tags and fusion partners may be left off the protein sequences shown.",
  "data": [
    {"sequence": "UAUUUAUUUAUGUAUUUAUUGAUUGGUUGAUCUAUUUAAGUUGAUUCAAG [EMSA probe 5]", "values": [
      {"measurement": "binding result", "value": "binds"}
    ]}
  ]
}
